For 42 sequences, binding signal results are on record in PMC7819943, “Rice protein-binding microarrays: a tool to detect cis-acting elements near promoter regions in rice”.

Amino acid sequences for entries named in this document (tags omitted).
UniProt Q0JBA9, entry or part of it: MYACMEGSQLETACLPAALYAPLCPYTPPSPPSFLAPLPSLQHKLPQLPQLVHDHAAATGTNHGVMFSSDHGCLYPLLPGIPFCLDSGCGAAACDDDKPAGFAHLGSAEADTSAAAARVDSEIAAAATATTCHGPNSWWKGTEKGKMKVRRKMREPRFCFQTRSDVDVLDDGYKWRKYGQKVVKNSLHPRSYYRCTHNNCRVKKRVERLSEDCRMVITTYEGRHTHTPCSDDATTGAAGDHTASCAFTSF

The other results are listed elsewhere or left out.

This assay deals with OsWRKY34 (Oryza sativa, UniProt Q0JBA9 1-250). Put plainly: protein-binding microarray (RPBM); PBS, 2% BSA, 51.3 ng/ul salmon testes DNA, 50 uM zinc acetate, 200 nM TF, 25 C, 1 h; high values mean tight binding. Conditions: protein: recombinant; tags: N-terminal polyhistidine and DsRed monomer fusion (pET32a); label: CyDye5-dUTP incorporated in the synthesized complementary strand; 3' TTTTT single-stranded linker to array surface; dsDNA, one strand shown. In outline:
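The binding signal is fluorescence intensity per array feature (arbitrary units). Readings came from an Axon 4000B scanner after a washed, 2% BSA-blocked, double-stranded custom Agilent array had been incubated for 1 h at 25 °C with 200 nM protein and 50 µM zinc acetate. The protein was a Ni–NTA-purified transcription factor fused N-terminally to polyhistidine and DsRed, expressed in E. coli BL21-CodonPlus.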
As for “GATTATATTTGTTATACATTTTAGACCACCCTAATTTTCTCGGAGTCACCTAGTGCAG”, the binding signal is 9820 fluorescence intensity (a.u.).

Regarding “AGGCCACACTCAACCTTTTTAACAAGCTAATCTCATCGTACGGAGTCACCTAGTGCAG”, the binding signal is 8090 fluorescence intensity (a.u.).

Take “GGGGCCATCTTTTTTGGGGTTAAATTTGGTCCAGAGTTGACGGAGTCACCTAGTGCAG”: the binding signal was 11200 fluorescence intensity (a.u.).

Take “CCTATCACCACCCACCTACTGCGCGTTTCTCCAGAGGCCTCGGAGTCACCTAGTGCAG”: the binding signal is 8300 fluorescence intensity (a.u.).

As to “GGTTGAGGAGATTGCCCTCGGTTTTGTTAATGTTGCAAATCGGAGTCACCTAGTGCAG”, the binding signal is 8370 fluorescence intensity (a.u.).

On to “TTTCCTTCGGCGTTTTTTCATCCATGACCTGGTACATGACCGGAGTCACCTAGTGCAG”, for which the binding signal is 9980 fluorescence intensity (a.u.).

In the case of “GACGACCAACCCCTGGCTGCTACGCGATCCGCAATAATAACGGAGTCACCTAGTGCAG”, the binding signal is 8420 fluorescence intensity (a.u.).

As to “TATCCTCGGTCCAGCCGTCTCTTCTCCCAAGTTCTGAAGTCGGAGTCACCTAGTGCAG”, the binding signal is 11400 fluorescence intensity (a.u.).

For “CTCCCATCCTCCATCGCACTCACTCCTCACCTCGATCCATCGGAGTCACCTAGTGCAG”, the binding signal is 8790 fluorescence intensity (a.u.).

As to “CTCGCTGGAATCGTGGGTGTGGGGTGGGTTCTGAGGATTCCGGAGTCACCTAGTGCAG”, the binding signal was 16000 fluorescence intensity (a.u.).

As for “ATTTCCTAACACATGTGTGTTGCTCCACTCTGTTTTTTTTCGGAGTCACCTAGTGCAG”, the binding signal was 9150 fluorescence intensity (a.u.).

Consider “ACGACGCTCTCACGCTGGTGTCATGTAGCTTTTTTTTTTCCGGAGTCACCTAGTGCAG”, for which the binding signal is 13300 fluorescence intensity (a.u.).

As to “GTCGTCTTCTACCTCCATATGCTCTGCTGCCTCTTCCATTCGGAGTCACCTAGTGCAG”, the binding signal was 11200 fluorescence intensity (a.u.).

Regarding “CGGTATTTCGGTATATAGCAGTCTTTTTTTTTAAAAAAATCGGAGTCACCTAGTGCAG”, the binding signal is 9640 fluorescence intensity (a.u.).

As for “CCCATCCACCAGCTCACAATGTCATGTCACTATGCATCTCCGGAGTCACCTAGTGCAG”, the binding signal is 9370 fluorescence intensity (a.u.).

In the case of “CTTCTCCACCGTCTCCATGGCTGTCCTGTCCGGCCCCTGGCGGAGTCACCTAGTGCAG”, the binding signal was 8880 fluorescence intensity (a.u.).

Regarding “GATCTCATGTGATTTGCTGTTGCACTCGGCGGCTATCTTTCGGAGTCACCTAGTGCAG”, the binding signal is 8240 fluorescence intensity (a.u.).

For “GTCTTATTCAAAAAATTTTGGAATTATTATTTATTTTGTTCGGAGTCACCTAGTGCAG”, the binding signal was 8180 fluorescence intensity (a.u.).

As for “AGCCACCATTACCACCTATTCTGTTTGTGCAAAACCAACCCGGAGTCACCTAGTGCAG”, the binding signal is 9600 fluorescence intensity (a.u.).

In the case of “CCATTCACGCGCGGAGACTTCGCTCCTCCTCCTCGGCGTCCGGAGTCACCTAGTGCAG”, the binding signal was 8660 fluorescence intensity (a.u.).

Turning to “CATGTCTTCGCTGTCTCGGGCGCTCGCCATCTTCCCGACCCGGAGTCACCTAGTGCAG”, the binding signal is 11700 fluorescence intensity (a.u.).

For “AGCTGTTGACTTTGTTAGGGCCATCAATTGGGTCAATTTCCGGAGTCACCTAGTGCAG”, the binding signal is 11300 fluorescence intensity (a.u.).

For “TAAGTCTTGGCTGGTTGGTCTTGGTCTTGTGGTGCCTTTTCGGAGTCACCTAGTGCAG”, the binding signal is 8530 fluorescence intensity (a.u.).

Regarding “ATCCGCGCGCGTGTGGCGCGCTGGGTGGGTGAGGCGCCGACGGAGTCACCTAGTGCAG”, the binding signal was 8350 fluorescence intensity (a.u.).

With “CCGGAGAGGCGGTGGTGTTTGGATCGGGAGGGGAGAGATGCGGAGTCACCTAGTGCAG”, the binding signal was 11500 fluorescence intensity (a.u.).

“GTTGGGTTGGGTCGAGTTGGAGTGGGCCTTCTTATCTTGACGGAGTCACCTAGTGCAG”: the binding signal was 15400 fluorescence intensity (a.u.).

Turning to “TCTATTTTTTTTATTTTTTAATTCCTAATTTTAGTTATTCCGGAGTCACCTAGTGCAG”, the binding signal is 8750 fluorescence intensity (a.u.).

As to “GTTTTCTGTGTTATTGGCCAAAGTTGTATTATGGAGACACCGGAGTCACCTAGTGCAG”, the binding signal is 10900 fluorescence intensity (a.u.).

On to “CTTGCATTCATATTGCACTACTATAGTACTATAAATTTTCCGGAGTCACCTAGTGCAG”, for which the binding signal was 8880 fluorescence intensity (a.u.).

As to “TGACTTTTAGTCAACGCCATACGAAAACAGGCTAATTCCTCGGAGTCACCTAGTGCAG”, the binding signal was 9080 fluorescence intensity (a.u.).

For “ATTCCAGTAAGTCTCCATTCCCTTCCATCATCAACAATTACGGAGTCACCTAGTGCAG”, the binding signal was 8240 fluorescence intensity (a.u.).

“TGGTCTGGTACTCTCTGGTGGTGGTGGTGGTGGTCGCCGTCGGAGTCACCTAGTGCAG”: the binding signal was 14700 fluorescence intensity (a.u.).

Turning to “TGCGTTCTGGTTCGTCCACCCTGTGCAAGCTTGTGTCATGCGGAGTCACCTAGTGCAG”, the binding signal was 8660 fluorescence intensity (a.u.).

With “TTATCGCACATTCGCATATATATTTGTTATTTTTGTTACACGGAGTCACCTAGTGCAG”, the binding signal was 8040 fluorescence intensity (a.u.).

For “TACACTATAGATTGCTCTCGCCTTAATTAATTAATTTCTACGGAGTCACCTAGTGCAG”, the binding signal is 9540 fluorescence intensity (a.u.).

With “TTGCCTGTTATGTTCGTTCTGCAAGTCTCTTTTCGTATATCGGAGTCACCTAGTGCAG”, the binding signal is 10300 fluorescence intensity (a.u.).

Regarding “AAAGTTTTTTGTCGTTGTTTGTTTTCCAGTATTTGCTTTTCGGAGTCACCTAGTGCAG”, the binding signal is 18000 fluorescence intensity (a.u.).

Regarding “GCCTTATCCATCTACTAGTATTCTTTCTGATTTAGTTCAACGGAGTCACCTAGTGCAG”, the binding signal was 8550 fluorescence intensity (a.u.).

As for “ACTTGATCTTGATATCTTCTTGTTCATCCATGATGTGAGACGGAGTCACCTAGTGCAG”, the binding signal is 8360 fluorescence intensity (a.u.).

Regarding “CAAGCAAACAACCTCTAGCTAGGACCTCTCTTCTATGTCTCGGAGTCACCTAGTGCAG”, the binding signal was 8210 fluorescence intensity (a.u.).

Consider “CGCTTCGCTTCCTTTCTGTCGTGGTGTCCTCGACGATCCCCGGAGTCACCTAGTGCAG”, for which the binding signal is 8040 fluorescence intensity (a.u.).

Take “CCACCTCCGCCGCTCTCTCCACTGCGCCGCCGGCGCCATGCGGAGTCACCTAGTGCAG”: the binding signal was 9400 fluorescence intensity (a.u.).
